# From PMC10641069, “Intra- and inter-molecular regulation by intrinsically-disordered regions governs PUF protein RNA binding” (Nature Communications, 2023)
# These are yes or no findings as the source states them, for the method shown.
# T1: FBF-2 RBD + CT (FBF-2 residues 164-632) (C. elegans) (UniProt Q09312)
# T1 sequence: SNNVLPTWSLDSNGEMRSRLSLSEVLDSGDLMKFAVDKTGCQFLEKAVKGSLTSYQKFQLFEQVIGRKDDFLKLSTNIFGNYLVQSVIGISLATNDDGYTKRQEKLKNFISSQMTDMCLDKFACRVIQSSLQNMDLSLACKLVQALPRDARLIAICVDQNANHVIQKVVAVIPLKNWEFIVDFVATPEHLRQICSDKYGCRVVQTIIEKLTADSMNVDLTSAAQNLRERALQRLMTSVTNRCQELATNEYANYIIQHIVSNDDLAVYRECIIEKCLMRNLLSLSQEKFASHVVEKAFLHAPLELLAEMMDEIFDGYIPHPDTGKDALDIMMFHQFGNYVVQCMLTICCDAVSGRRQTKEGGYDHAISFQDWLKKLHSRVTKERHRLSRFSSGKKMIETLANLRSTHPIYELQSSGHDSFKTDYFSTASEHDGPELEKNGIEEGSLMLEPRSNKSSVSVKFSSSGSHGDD
# Biological target: T1, FBF-2 RBD + CT (FBF-2 residues 164-632) (C. elegans)
# Test: condition: LST-1 100–400 µM in the syringe, FBF-2 10–30 µM in the cell; ITC; peptide (100–400 µM) titrated from the syringe into the cell containing FBF-2 (10–30 µM); 20 °C; 20 mM HEPES pH 7.4, 150 mM NaCl, 0.5 mM TCEP; no RNA; one-site model; mean of two replicates; both purified
binder,measurement,value
"STIAYSKSQHEAPKQLLQLRSEIKPLIPLNQP (peptide, UniProt P91820 19-50, looked up, The tag was cleaved with Ulp1 protease; also called LST-1^19–50; source: E. coli, purified (Ni-NTA, HiTrap Q flow-through, Superdex 75); not shown: His6-SUMO, N-terminal, cleaved) [LST-1 A peptide (LST-1 residues 19-50)]",binding,no binding
